{"source": "PubChem BioAssay AID686937 (Drosophila RNAi Screening Center, 2013)", "purpose": "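Genes whose loss weakens secretory pathway function in fly cells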 (primary screen)", "system": "Drosophila S2 cells expressing secreted horseradish peroxidase", "reagent": "long dsRNA against Drosophila genes", "duration": "about 5.5 days (5 days dsRNA, then 12 h reporter induction)", "conditions": "reporter expression induced after 5 days of dsRNA, read 12 h later; inducer not stated", "detection": "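Chemiluminescent measurement of peroxidase in the medium 12 h after reporter induction, following 5 days of dsRNA, given as a z-score per plate; higher means more secretion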", "direction": "z-score: higher = more reporter secreted into medium", "note": "The deposit covers about 23,000 reagents; shown is an unselected part of those with a known target gene and a result. 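Reduced-secretion tags in replicate 1 do not always agree with the z-scores; no criterion for assigning the tags was given.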 The numbers tell different reagents against one gene apart. Further read-outs or replicates are left out here. Reagent sequences are not shown. Not given: the amount of reagent."}
{"predicted target": "CG5854", "reagent no.": 1, "z-score, replicate 1": 0.57}
{"predicted target": "CG8907", "reagent no.": 1, "z-score, replicate 1": 0.31}
{"predicted target": "CG43335", "reagent no.": 1, "z-score, replicate 1": 0.14}
{"predicted target": "CG43335", "reagent no.": 2, "z-score, replicate 1": -1.77}
{"predicted target": "Shark", "reagent no.": 1, "z-score, replicate 1": 0.24}
{"predicted target": "Ank", "reagent no.": 1, "z-score, replicate 1": 0.66}
{"predicted target": "CG42564", "reagent no.": 1, "z-score, replicate 1": 0.28}
{"predicted target": "mah", "reagent no.": 1, "z-score, replicate 1": 0.34}
{"predicted target": "CG42288", "reagent no.": 1, "z-score, replicate 1": 0.44}
{"predicted target": "nAChRalpha6", "reagent no.": 1, "z-score, replicate 1": 0.69}
{"predicted target": "nAChRalpha6", "reagent no.": 2, "z-score, replicate 1": -0.88}
{"predicted target": "nAChRalpha6", "reagent no.": 3, "z-score, replicate 1": 0.39}
{"predicted target": "CG7849", "reagent no.": 1, "z-score, replicate 1": 0.26}
{"predicted target": "CG3735", "reagent no.": 1, "z-score, replicate 1": -0.07}
{"predicted target": "CG34355", "reagent no.": 1, "z-score, replicate 1": 0.37}
{"predicted target": "CG34355", "reagent no.": 2, "z-score, replicate 1": 0.16}
{"predicted target": "CG34355", "reagent no.": 3, "z-score, replicate 1": 0.21}
{"predicted target": "CG34355", "reagent no.": 4, "z-score, replicate 1": -0.61}
{"predicted target": "ed", "reagent no.": 1, "z-score, replicate 1": 0.37}
{"predicted target": "ed", "reagent no.": 2, "z-score, replicate 1": 0.33}
{"predicted target": "ed", "reagent no.": 3, "z-score, replicate 1": 0.35}
{"predicted target": "ed", "reagent no.": 4, "z-score, replicate 1": 0.16}
{"predicted target": "zip", "reagent no.": 1, "z-score, replicate 1": 0.4}
{"predicted target": "zip", "reagent no.": 2, "z-score, replicate 1": -0.27}
{"predicted target": "CG2898", "reagent no.": 1, "z-score, replicate 1": 0.4}
{"predicted target": "rst", "reagent no.": 1, "z-score, replicate 1": 0.21}
{"predicted target": "rst", "reagent no.": 2, "z-score, replicate 1": 0.36}

Individual results from above.
For “z-score, replicate 1”, ed #2 shows 0.33
Under “z-score, replicate 1”, CG34355 #1 has 0.37
Under “z-score, replicate 1”, CG34355 #3 reads 0.21
Entry for ed #4 in “z-score, replicate 1”: 0.16
